Experimental data published in publication PMC5428229.
These are yes or no findings as the source states them, for the method shown. Binding seen in cells or lysates may run through a third protein. Some results given as binding are weak or reduced against the parent protein; the word gives no strength.

Chains of the proteins cited; added tags and fusions are not shown.
UniProt Q96D31: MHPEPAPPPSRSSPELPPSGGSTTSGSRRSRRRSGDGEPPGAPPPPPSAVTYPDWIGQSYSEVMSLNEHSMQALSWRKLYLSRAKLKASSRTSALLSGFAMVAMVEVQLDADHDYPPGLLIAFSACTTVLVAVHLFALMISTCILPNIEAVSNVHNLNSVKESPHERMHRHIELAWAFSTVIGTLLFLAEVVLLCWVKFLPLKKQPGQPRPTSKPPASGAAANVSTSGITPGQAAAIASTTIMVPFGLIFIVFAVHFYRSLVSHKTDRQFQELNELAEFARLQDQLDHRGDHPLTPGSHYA
UniProt Q14247: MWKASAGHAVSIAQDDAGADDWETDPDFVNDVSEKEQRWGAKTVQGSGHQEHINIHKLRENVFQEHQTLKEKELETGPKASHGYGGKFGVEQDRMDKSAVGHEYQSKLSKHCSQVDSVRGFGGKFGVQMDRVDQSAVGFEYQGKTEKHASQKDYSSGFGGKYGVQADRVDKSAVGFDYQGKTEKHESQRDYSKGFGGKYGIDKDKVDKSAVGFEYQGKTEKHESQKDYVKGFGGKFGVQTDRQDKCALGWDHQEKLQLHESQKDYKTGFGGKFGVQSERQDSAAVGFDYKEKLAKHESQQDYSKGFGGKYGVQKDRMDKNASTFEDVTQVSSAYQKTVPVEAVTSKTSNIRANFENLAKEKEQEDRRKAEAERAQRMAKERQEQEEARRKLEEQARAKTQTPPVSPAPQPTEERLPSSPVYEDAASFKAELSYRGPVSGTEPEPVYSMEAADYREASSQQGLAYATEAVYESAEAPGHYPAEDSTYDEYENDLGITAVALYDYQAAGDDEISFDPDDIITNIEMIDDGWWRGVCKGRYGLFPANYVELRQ

Columns and labels:
[1] = target: endogenous ORAI1 (human (endogenous in U2OS)) (UniProt Q96D31); test: co-IP; endogenous ORAI1 immunoprecipitated from 0.5 mg clarified U2OS lysate with anti-ORAI1 antibody covalently conjugated to agarose beads, 1 h at 4 °C; washed with lysis buffer containing 0.15 M NaCl and 50 mM Tris-HCl, 0.1 mM EGTA, pH 7.5; CTTN detected by immunoblot; preimmune serum and agarose beads as negative control
ORAI1-GFP (human) = ORAI1-GFP (human) (UniProt Q96D31); test: co-IP; GFP-Trap agarose beads (5 μl) added to 2.5 mg clarified lysate of U2OS cells transiently expressing GFP or ORAI1-GFP, 1 h at 4 °C; washed with lysis buffer containing 0.15 M NaCl and 50 mM Tris-HCl, 0.1 mM EGTA, pH 7.5; endogenous CTTN detected by immunoblot

**Q.** “endogenous cortactin (CTTN) (from UniProt Q14247 1-550)” was tested. Which binding [1] did it give?
**A.** The binding was “binds”.

**Q.** What about the binding (ORAI1-GFP (human)) of the same substance?
**A.** Its binding is “binds”.
